Source: paper PMC3063181

The chains behind the UniProt entries cited, without tags or fusion partners.
UniProt O43747: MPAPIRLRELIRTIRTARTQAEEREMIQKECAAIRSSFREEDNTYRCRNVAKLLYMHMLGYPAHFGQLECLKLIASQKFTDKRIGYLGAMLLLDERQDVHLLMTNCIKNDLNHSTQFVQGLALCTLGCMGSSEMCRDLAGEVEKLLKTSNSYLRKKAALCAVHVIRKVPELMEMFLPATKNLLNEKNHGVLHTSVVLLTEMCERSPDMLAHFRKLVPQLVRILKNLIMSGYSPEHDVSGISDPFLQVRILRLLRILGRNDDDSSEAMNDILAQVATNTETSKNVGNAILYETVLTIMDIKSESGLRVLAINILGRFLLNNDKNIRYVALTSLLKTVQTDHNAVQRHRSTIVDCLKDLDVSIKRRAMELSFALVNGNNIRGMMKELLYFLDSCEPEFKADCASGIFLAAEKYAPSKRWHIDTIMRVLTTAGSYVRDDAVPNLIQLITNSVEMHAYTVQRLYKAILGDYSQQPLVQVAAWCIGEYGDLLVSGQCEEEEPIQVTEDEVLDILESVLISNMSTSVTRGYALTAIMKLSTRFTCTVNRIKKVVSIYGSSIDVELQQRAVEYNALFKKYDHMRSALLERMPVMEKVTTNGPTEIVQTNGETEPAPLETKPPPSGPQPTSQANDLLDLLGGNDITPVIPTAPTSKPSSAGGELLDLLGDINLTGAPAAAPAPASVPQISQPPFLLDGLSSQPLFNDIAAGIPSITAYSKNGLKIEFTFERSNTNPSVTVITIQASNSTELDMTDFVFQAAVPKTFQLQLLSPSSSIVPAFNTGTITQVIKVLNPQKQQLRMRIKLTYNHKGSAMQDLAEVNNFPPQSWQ
UniProt Q9P2D3: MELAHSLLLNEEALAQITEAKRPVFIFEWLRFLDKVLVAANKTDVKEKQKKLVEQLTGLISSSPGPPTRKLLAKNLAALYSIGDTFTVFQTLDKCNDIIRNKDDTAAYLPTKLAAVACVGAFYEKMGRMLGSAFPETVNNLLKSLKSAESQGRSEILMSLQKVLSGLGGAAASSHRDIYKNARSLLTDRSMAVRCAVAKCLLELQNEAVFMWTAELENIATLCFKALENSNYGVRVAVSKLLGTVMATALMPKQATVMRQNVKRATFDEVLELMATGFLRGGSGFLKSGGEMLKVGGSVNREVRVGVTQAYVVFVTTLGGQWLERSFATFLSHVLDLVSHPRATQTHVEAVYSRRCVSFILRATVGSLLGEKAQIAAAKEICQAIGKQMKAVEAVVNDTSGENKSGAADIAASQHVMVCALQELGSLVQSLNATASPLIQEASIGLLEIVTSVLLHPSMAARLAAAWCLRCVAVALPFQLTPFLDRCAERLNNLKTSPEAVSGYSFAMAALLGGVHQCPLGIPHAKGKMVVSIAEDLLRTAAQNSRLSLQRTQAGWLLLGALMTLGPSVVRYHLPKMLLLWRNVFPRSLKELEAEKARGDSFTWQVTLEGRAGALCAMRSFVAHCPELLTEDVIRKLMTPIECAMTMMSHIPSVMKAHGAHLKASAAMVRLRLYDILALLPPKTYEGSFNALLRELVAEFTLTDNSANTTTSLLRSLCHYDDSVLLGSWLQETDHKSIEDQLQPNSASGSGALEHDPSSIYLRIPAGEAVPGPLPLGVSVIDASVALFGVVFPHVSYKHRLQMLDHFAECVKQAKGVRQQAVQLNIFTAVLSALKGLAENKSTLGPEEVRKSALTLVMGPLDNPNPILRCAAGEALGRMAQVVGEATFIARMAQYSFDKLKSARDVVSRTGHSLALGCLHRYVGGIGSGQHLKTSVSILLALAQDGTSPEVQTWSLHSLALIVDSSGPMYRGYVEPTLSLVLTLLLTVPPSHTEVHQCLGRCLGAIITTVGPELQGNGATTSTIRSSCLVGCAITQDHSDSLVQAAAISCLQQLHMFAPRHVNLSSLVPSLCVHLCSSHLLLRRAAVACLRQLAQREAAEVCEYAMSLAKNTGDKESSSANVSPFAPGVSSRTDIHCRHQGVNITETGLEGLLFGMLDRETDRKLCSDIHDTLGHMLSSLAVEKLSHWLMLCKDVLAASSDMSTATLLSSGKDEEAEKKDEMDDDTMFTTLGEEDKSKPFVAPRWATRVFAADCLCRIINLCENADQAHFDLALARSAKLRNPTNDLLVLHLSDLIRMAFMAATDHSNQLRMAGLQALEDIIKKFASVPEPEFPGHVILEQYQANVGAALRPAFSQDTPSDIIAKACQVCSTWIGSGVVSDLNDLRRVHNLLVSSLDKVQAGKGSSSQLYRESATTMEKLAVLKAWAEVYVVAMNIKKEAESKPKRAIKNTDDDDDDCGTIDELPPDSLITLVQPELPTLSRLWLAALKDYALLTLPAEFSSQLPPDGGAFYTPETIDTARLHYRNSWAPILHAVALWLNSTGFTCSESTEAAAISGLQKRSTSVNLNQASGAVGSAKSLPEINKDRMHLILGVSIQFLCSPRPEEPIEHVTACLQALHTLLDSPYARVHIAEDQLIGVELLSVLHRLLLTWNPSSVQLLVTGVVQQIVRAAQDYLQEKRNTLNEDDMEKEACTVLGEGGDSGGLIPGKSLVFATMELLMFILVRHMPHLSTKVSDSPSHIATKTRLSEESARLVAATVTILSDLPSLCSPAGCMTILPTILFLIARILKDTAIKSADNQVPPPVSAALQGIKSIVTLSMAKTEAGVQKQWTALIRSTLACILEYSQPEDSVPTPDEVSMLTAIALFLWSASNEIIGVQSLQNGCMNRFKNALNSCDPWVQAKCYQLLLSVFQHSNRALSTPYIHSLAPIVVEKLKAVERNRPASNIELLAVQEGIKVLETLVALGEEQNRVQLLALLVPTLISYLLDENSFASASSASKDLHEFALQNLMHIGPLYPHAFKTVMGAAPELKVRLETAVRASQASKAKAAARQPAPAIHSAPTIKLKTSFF
UniProt P61966: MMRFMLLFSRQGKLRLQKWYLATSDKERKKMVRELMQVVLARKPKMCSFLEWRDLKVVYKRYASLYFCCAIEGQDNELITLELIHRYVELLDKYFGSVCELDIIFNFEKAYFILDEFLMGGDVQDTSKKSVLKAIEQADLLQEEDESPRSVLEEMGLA
UniProt Q9H1H9: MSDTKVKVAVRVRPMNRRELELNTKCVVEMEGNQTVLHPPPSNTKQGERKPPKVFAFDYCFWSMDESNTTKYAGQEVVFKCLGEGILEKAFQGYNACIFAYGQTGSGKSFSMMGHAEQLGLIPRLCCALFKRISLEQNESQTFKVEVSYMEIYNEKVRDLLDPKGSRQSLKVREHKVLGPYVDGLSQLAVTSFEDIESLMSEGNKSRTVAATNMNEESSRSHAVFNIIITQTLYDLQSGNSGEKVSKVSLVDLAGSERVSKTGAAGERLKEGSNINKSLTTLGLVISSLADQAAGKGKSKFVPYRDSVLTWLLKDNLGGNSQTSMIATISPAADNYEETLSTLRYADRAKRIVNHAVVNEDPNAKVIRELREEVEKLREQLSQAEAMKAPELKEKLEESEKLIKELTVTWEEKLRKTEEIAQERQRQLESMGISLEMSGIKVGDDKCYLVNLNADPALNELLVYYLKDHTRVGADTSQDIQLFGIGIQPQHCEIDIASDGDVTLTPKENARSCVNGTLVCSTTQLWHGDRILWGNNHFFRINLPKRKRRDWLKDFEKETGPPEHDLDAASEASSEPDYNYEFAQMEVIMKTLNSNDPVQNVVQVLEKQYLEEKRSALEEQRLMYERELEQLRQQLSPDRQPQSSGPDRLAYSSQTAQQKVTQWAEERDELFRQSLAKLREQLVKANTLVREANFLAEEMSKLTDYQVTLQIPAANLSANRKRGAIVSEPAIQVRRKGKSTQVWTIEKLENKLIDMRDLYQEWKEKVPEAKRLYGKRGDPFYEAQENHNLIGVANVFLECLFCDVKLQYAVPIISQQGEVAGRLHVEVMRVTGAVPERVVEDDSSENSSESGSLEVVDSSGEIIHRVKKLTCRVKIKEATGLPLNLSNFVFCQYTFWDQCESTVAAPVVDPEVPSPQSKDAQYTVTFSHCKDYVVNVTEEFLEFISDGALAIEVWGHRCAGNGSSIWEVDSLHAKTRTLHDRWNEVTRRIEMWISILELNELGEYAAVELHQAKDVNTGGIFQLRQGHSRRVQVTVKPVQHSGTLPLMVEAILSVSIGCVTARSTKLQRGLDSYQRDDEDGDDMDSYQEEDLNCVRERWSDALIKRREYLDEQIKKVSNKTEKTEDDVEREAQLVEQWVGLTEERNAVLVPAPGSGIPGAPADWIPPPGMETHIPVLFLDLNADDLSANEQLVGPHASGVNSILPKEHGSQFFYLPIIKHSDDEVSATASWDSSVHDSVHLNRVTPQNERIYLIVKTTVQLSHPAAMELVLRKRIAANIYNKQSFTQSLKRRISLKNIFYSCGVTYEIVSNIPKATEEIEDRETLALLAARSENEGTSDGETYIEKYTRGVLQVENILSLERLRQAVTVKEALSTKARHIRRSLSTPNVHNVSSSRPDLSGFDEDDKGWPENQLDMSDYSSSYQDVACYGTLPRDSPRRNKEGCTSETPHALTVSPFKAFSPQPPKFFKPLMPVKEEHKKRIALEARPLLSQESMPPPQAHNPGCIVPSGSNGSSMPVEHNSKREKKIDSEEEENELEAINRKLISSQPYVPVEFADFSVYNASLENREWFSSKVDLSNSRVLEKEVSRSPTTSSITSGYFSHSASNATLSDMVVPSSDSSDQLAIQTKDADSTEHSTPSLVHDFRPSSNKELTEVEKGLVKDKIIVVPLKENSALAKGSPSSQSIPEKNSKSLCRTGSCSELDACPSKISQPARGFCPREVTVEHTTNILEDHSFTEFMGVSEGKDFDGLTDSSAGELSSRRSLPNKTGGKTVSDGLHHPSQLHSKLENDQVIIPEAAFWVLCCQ

Tests used:
[1] = molecular target: Adaptor protein complex 1 (AP-1) γ-subunit, AP-1γ1 (human (endogenous in HeLa)) (UniProt O43747); assay: affinity purification with mass spectrometry; native IP of AP-1γ from HeLa detergent lysate (MES-D buffer in experiments 1 and 2, PBS-T in experiment 3), protein A sepharose; standard or soft elution; tryptic solution digest without fractionation, LC-MSMS; three independent repeats
[2] = molecular target: Adaptor protein complex 1 (AP-1) γ-subunit, AP-1γ1 (human (endogenous in HeLa)) (UniProt O43747); assay: affinity purification with mass spectrometry; native IP of the AP-1γ subunit from HeLa cell lysate with a rabbit polyclonal antibody, protein A sepharose; standard or soft elution; SDS-PAGE, Coomassie, selected bands identified by mass spectrometry

p200 (from UniProt Q9P2D3 1-2071)
binding [1]: binds
binding [2]: binds

AP-1σ1a subunit (from UniProt P61966 1-158)
binding [1]: binds

KIF13A (from UniProt Q9H1H9 1-1805)
binding [1]: binds

B1: γ-Synergin (protein, UniProt Q9UMZ2 1-1314)
chain: MALRPGAGSGGGGAAGAGAGSAGGGGFMFPVAGGIRPPQAGLMPMQQQGFPMVSVMQPNMQGIMGMNYSSQMSQGPIAMQAGIPMGPMPAAGMPYLGQAPFLGMRPPGPQYTPDMQKQFAEEQQKRFEQQQKLLEEERKRRQFEEQKQKLRLLSSVKPKTGEKSRDDALEAIKGNLDGFSRDAKMHPTPASHPKKPGPSLEEKFLVSCDISTSGQEQIKLNTSEVGHKALGPGSSKKYPSLMASNGVAVDGCVSGTTTAEAENTSDQNLSIEESGVGVFPSQDPAQPRMPPWIYNESLVPDAYKKILETTMTPTGIDTAKLYPILMSSGLPRETLGQIWALANRTTPGKLTKEELYTVLAMIAVTQRGVPAMSPDALNQFPAAPIPTLSGFSMTLPTPVSQPTVIPSGPAGSMPLSLGQPVMGINLVGPVGGAAAQASSGFIPTYPANQVVKPEEDDFQDFQDASKSGSLDDSFSDFQELPASSKTSNSQHGNSAPSLLMPLPGTKALPSMDKYAVFKGIAADKSSENTVPPGDPGDKYSAFRELEQTAENKPLGESFAEFRSAGTDDGFTDFKTADSVSPLEPPTKDKTFPPSFPSGTIQQKQQTQVKNPLNLADLDMFSSVNCSSEKPLSFSAVFSTSKSVSTPQSTGSAATMTALAATKTSSLADDFGEFSLFGEYSGLAPVGEQDDFADFMAFSNSSISSEQKPDDKYDALKEEASPVPLTSNVGSTVKGGQNSTAASTKYDVFRQLSLEGSGLGVEDLKDNTPSGKSDDDFADFHSSKFSSINSDKSLGEKAVAFRHTKEDSASVKSLDLPSIGGSSVGKEDSEDALSVQFDMKLADVGGDLKHVMSDSSLDLPTVSGQHPPAADIEDLKYAAFGSYSSNFAVSTLTSYDWSDRDDATQGRKLSPFVLSAGSGSPSATSILQKKETSFGSSENITMTSLSKVTTFVSEDALPETTFPALASFKDTIPQTSEQKEYENRDYKDFTKQDLPTAERSQEATCPSPASSGASQETPNECSDDFGEFQSEKPKISKFDFLVATSQSKMKSSEEMIKSELATFDLSVQGSHKRSLSLGDKEISRSSPSPALEQPFRDRSNTLNEKPALPVIRDKYKDLTGEVEENERYAYEWQRCLGSALNVIKKANDTLNGISSSSVCTEVIQSAQGMEYLLGVVEVYRVTKRVELGIKATAVCSEKLQQLLKDIDKVWNNLIGFMSLATLTPDENSLDFSSCMLRPGIKNAQELACGVCLLNVDSRSRKEEKPAEEHPKKAFNSETDSFKLAYGGHQYHASCANFWINCVEPKPPGLVLPDLL
binding [1]: binds
binding [2]: binds

B2: AP-1β subunit (β1) (protein, UniProt Q10567 1-949)
chain: MTDSKYFTTTKKGEIFELKAELNSDKKEKKKEAVKKVIASMTVGKDVSALFPDVVNCMQTDNLELKKLVYLYLMNYAKSQPDMAIMAVNTFVKDCEDPNPLIRALAVRTMGCIRVDKITEYLCEPLRKCLKDEDPYVRKTAAVCVAKLHDINAQLVEDQGFLDTLKDLISDSNPMVVANAVAALSEIAESHPSSNLLDLNPQSINKLLTALNECTEWGQIFILDCLANYMPKDDREAQSICERVTPRLSHANSAVVLSAVKVLMKFMEMLSKDLDYYGTLLKKLAPPLVTLLSAEPELQYVALRNINLIVQKRPEILKHEMKVFFVKYNDPIYVKLEKLDIMIRLASQANIAQVLAELKEYATEVDVDFVRKAVRAIGRCAIKVEQSAERCVSTLLDLIQTKVNYVVQEAIVVIKDIFRKYPNKYESVIATLCENLDSLDEPEARAAMIWIVGEYAERIDNADELLESFLEGFHDESTQVQLQLLTAIVKLFLKKPTETQELVQQVLSLATQDSDNPDLRDRGYIYWRLLSTDPVAAKEVVLAEKPLISEETDLIEPTLLDELICYIGTLASVYHKPPSAFVEGGRGVVHKSLPPRTASSESAESPETAPTGAPPGEQPDVIPAQGDLLGDLLNLDLGPPVSGPPLATSSVQMGAVDLLGGGLDSLMGDEPEGIGGTNFVAPPTAAVPANLGAPIGSGLSDLFDLTSGVGTLSGSYVAPKAVWLPAMKAKGLEISGTFTRQVGSISMDLQLTNKALQVMTDFAIQFNRNSFGLAPAAPLQVHAPLSPNQTVEISLPLSTVGSVMKMEPLNNLQVAVKNNIDVFYFSTLYPLHILFVEDGKMDRQMFLATWKDIPNENEAQFQIRDCPLNAEAASSKLQSSNIFTVAKRNVEGQDMLYQSLKLTNGIWVLAELRIQPGNPSCTDLELSLKCRAPEVSQHVYQAYETILKN
binding [1]: binds
binding [2]: binds

B3: Aftiphilin (protein, UniProt Q6ULP2 1-936)
chain: MEPDIIRMYSSSPPPLDNGAEDDDDDEFGEFGGFSEVSPSGVGFVDFDTPDYTRPKEEFVPSNHFMPIHEFSENVDSLTSFKSIKNGNDKDITAELSAPVKGQSDVLLSTTSKEIISSEMLATSIDGMERPGNLNKVVEQRQNVGTLESFSPGDFRTNMNVVHQNKQLESCNGEKPPCLEILTNGFAVLETVNPQGTDDLDNVADSKGRKPLSTHSTEYNLDSVPSPAEEFADFATFSKKERIQLEEIECAVLNDREALTIRENNKINRVNELNSVKEVALGRSLDNKGDTDGEDQVCVSEISIVTNRGFSVEKQGLPTLQQDEFLQSGVQSKAWSLVDSADNSEAIRREQCKTEEKLDLLTSKCAHLCMDSVKTSDDEVGSPKEESRKFTNFQSPNIDPTEENDLDDSLSVKNGDSSNDFVTCNDINEDDFGDFGDFGSASGSTPPFVTGTQDSMSDATFEESSEHFPHFSEPGDDFGEFGDINAVSCQEETILTKSDLKQTSDNLSEECQLARKSSGTGTEPVAKLKNGQEGEIGHFDSVPNIQDDCNGFQDSDDFADFSSAGPSQVVDWNAFEDEQKDSCSWAAFGDQQATESHHRKEAWQSHRTDENIDTPGTPKTHSVPSATSKGAVASGHLQESATSVQTALLNRLERIFEACFPSILVPDAEEEVTSLKHLLETSTLPIKTREALPESGELLDVWTELQDIHDAHGLRYQWGGSHSNKKLLSSLGIDTRNILFTGNKKQPVIVPMYAAGLGMLEPTKEPLKPLSAAEKIASIGQTATMSPDMNTCTSDQFQESLPPVQFDWSSSGLTNPLDASGGSTLLNLDFFGPVDDSSSSSSTTIPGVDPELYELTTSKLEISTSSLKVTDAFARLMSTVEKTSTSTRKPKREEHLSEEAIKVIAGLPDLTFMHAKVLMFPATLTPSTSSQEKADG
binding [1]: binds

B4: AP-1µ1a subunit (protein, UniProt Q9BXS5 1-423)
chain: MSASAVYVLDLKGKVLICRNYRGDVDMSEVEHFMPILMEKEEEGMLSPILAHGGVRFMWIKHNNLYLVATSKKNACVSLVFSFLYKVVQVFSEYFKELEEESIRDNFVIIYELLDELMDFGYPQTTDSKILQEYITQEGHKLETGAPRPPATVTNAVSWRSEGIKYRKNEVFLDVIESVNLLVSANGNVLRSEIVGSIKMRVFLSGMPELRLGLNDKVLFDNTGRGKSKSVELEDVKFHQCVRLSRFENDRTISFIPPDGEFELMSYRLNTHVKPLIWIESVIEKHSHSRIEYMIKAKSQFKRRSTANNVEIHIPVPNDADSPKFKTTVGSVKWVPENSEIVWSIKSFPGGKEYLMRAHFGLPSVEAEDKEGKPPISVKFEIPYFTTSGIQVRYLKIIEKSGYQALPWVRYITQNGDYQLRTQ
binding [1]: binds
binding [2]: binds

B5: AP-1σ1c subunit (protein, UniProt Q96PC3 1-154)
chain: MIHFILLFSRQGKLRLQKWYITLPDKERKKITREIVQIILSRGHRTSSFVDWKELKLVYKRYASLYFCCAIENQDNELLTLEIVHRYVELLDKYFGNVCELDIIFNFEKAYFILDEFIIGGEIQETSKKIAVKAIEDSDMLQEVSTVSQTMGER
binding [1]: binds

B6: AP-1σ1b subunit (protein, UniProt P56377 1-157)
chain: MQFMLLFSRQGKLRLQKWYVPLSDKEKKKITRELVQTVLARKPKMCSFLEWRDLKIVYKRYASLYFCCAIEDQDNELITLEIIHRYVELLDKYFGSVCELDIIFNFEKAYFILDEFLLGGEVQETSKKNVLKAIEQADLLQEEAETPRSVLEEIGLT
binding [1]: binds

These are yes or no findings as the source states them, for the method shown. Binding seen in cells or lysates may run through a third protein. A yes stands for co-enrichment or nearness to the bait. Other partners may have been found.
